Tags and fusion partners may be left off the protein sequences shown. For some of these results: For at least one entry, the source does not settle the construct or the ends of the probe.
How the values were obtained:
[1] = system: T1, M.BsaIB (C5 methylase) (Bacillus stearothermophilus 6-55); test: activity in cells; conditions: plasmids carrying bsaIMB resistant to BsaI digestion; protein in cells; only the site is given
T1 sequence: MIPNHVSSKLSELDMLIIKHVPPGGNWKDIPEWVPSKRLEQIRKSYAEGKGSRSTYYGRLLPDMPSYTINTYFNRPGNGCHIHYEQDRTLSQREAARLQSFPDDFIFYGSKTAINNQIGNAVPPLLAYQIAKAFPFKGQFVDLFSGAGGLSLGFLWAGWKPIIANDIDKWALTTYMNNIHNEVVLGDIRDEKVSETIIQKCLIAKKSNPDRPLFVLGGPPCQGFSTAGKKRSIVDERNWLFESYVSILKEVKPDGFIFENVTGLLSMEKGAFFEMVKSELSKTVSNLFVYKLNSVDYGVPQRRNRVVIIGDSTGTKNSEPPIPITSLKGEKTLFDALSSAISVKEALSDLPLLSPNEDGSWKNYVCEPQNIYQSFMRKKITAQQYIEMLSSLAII

[2] = system: T2, BsaI restriction endonuclease (recombinant, cell extract) L1M (Bacillus stearothermophilus 6-55); test: enzyme reaction in vitro; conditions: T7 DNA substrate; BsmAI-methylase premodified host; 0.7-1.4 x 10^6 with BsaIMA&B host; protein in an extract
T2 sequence: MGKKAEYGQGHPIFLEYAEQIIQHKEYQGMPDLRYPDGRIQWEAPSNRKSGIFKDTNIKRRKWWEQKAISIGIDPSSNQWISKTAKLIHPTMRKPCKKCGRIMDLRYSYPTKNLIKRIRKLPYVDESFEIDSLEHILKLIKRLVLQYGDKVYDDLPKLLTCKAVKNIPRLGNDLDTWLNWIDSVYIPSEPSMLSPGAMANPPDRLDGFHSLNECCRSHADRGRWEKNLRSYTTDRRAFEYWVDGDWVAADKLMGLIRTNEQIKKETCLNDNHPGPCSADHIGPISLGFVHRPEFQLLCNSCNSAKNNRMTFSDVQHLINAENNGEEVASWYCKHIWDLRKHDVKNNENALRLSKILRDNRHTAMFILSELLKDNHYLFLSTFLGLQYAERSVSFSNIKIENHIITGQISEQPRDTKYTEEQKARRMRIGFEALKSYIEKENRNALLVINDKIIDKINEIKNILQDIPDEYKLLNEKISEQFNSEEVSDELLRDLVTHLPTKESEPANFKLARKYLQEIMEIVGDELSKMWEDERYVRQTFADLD

[3] = system: T3, BsaI restriction endonuclease (recombinant) L1M (Bacillus stearothermophilus 6-55); test: enzyme reaction in vitro; conditions: purification fractions assayed on lambda DNA; 10^6 units purified in total; purified recombinant protein
T3 sequence: T2 sequence

M.BsmAI (M1-M2 fusion) = biological target: T4, M.BsmAI (M1-M2 fusion) (UniProt Q6UQ63); test: activity in cells; conditions: four of six clones resistant to BsmAI digestion; site overlaps BsaI site and cross-protects host; protein in cells; protein details: expressed from pBR322 in E. coli ER2566; only the motif is given
T4 sequence (looked up, limits assumed): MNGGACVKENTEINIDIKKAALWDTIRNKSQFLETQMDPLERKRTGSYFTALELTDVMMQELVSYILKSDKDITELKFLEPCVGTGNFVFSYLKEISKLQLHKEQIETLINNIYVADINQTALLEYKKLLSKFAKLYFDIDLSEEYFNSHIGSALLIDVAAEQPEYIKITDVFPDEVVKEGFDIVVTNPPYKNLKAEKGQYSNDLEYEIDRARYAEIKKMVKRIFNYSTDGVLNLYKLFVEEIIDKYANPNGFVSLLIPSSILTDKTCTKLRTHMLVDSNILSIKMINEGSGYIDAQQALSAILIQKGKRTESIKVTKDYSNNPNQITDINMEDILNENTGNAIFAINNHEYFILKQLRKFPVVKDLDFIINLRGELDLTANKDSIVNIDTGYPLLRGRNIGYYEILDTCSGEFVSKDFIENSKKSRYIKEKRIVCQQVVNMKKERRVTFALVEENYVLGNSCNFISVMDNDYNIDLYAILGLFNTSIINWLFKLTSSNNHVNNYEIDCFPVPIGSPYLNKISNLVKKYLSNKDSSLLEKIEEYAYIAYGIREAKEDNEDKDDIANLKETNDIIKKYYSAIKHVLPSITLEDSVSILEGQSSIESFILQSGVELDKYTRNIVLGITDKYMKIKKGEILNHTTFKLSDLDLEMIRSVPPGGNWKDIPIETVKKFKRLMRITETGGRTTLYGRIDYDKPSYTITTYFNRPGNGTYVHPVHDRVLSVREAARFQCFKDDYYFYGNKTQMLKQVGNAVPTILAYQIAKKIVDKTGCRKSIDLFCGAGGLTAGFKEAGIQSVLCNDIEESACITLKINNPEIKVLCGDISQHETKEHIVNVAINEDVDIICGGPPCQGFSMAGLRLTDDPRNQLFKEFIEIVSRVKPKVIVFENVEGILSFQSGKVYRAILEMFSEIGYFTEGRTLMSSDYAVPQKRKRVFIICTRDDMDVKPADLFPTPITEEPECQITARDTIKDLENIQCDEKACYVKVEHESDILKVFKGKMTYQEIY

Row | Sequence | activity on this sequence [1] | activity on this sequence [2] | activity on this sequence [3] | activity on this sequence (M.BsmAI (M1-M2 fusion))
1 | GGTCTC (double strand) [BsaI recognition site (in T7 or lambda DNA)] | active | active | active | –
2 | GTCTC (double strand) [BsmAI recognition site (in plasmid DNA)] | – | – | – | active

Reference: patent US20030186363
